± gives the standard deviation of the averaged measurements. Some of the results follow.
Compound: Nc1nc2c(ncn2[C@@H]2O[C@H](COP(=O)(O)OP(=O)(O)OP(=O)(O)O)[C@@H](O)[C@H]2O)c(=O)[nH]1 [guanosine triphosphate]
Experiment: NP40-soluble protein abundance relative to vehicle (solubility fold change) (ratio); higher = more soluble protein in presence of GTP
In short: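 Values are fold changes against the detergent-processed vehicle, based on vsn-normalised intensities. Jurkat crude lysate was treated at eight concentrations from 0.1 to 10 mM (10 min at room temperature, then 3 min at 37 °C), solubilised with 0.8% NP40 and benzonase, ultracentrifuged and analysed by TMT-labelled LC-MS/MS over three independent experiments.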

The chains behind the UniProt entries cited, without tags or fusion partners. Where a name states a change or a piece, a line headed by the entry shows the natural chain unless it says otherwise.
UniProt A0FGR8: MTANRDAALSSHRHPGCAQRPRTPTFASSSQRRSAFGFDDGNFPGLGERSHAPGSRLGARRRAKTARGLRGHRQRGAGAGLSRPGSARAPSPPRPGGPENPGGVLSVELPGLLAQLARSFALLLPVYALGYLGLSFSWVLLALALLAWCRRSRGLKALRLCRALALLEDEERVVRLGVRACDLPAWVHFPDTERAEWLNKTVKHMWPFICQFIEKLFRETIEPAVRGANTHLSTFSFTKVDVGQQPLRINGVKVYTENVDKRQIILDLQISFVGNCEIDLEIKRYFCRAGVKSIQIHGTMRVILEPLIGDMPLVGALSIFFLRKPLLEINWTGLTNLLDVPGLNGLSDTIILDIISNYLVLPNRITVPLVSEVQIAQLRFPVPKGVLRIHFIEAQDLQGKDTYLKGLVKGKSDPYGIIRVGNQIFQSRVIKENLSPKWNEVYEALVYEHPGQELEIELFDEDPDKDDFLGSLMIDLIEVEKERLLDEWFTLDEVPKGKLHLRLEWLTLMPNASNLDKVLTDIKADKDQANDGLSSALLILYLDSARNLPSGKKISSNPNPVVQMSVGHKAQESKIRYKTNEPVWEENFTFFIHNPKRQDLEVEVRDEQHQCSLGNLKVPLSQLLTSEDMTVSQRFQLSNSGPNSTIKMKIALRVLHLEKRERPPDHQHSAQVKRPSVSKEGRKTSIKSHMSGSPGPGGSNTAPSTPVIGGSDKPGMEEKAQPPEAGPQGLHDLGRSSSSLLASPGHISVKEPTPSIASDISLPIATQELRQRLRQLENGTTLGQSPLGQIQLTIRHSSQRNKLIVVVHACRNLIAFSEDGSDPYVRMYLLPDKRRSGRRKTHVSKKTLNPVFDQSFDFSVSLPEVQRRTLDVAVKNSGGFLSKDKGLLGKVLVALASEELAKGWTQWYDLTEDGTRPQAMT
UniProt Q9BVL2: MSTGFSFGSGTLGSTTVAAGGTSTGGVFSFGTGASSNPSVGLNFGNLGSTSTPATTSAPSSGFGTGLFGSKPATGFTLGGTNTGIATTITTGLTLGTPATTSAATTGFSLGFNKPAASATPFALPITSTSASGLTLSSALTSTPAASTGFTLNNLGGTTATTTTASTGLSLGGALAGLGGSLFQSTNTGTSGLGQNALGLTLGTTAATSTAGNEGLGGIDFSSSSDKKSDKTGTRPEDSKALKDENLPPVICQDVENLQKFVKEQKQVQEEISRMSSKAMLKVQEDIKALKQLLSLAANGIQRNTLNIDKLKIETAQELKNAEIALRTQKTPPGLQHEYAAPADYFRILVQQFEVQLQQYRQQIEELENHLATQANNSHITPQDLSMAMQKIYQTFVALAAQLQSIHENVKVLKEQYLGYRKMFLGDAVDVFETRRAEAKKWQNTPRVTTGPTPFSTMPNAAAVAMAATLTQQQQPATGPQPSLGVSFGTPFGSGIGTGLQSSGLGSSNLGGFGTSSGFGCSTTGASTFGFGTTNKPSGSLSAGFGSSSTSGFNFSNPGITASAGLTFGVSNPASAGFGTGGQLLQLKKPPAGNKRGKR
UniProt O94923: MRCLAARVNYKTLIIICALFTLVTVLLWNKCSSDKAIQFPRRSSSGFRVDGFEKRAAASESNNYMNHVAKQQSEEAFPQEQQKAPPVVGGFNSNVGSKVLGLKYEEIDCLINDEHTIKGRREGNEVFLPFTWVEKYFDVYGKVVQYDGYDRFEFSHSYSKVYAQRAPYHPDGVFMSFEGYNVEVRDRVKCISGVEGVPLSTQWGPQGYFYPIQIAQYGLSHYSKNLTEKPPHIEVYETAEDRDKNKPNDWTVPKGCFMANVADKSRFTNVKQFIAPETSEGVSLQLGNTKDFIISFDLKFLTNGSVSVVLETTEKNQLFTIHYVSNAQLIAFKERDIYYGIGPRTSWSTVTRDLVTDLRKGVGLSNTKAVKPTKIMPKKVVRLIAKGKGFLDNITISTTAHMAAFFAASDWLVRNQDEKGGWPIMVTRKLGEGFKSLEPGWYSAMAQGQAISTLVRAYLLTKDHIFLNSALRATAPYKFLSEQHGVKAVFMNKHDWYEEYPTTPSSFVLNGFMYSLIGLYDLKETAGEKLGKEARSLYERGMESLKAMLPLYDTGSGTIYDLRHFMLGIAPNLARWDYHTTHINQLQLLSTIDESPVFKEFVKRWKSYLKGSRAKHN
UniProt O95834: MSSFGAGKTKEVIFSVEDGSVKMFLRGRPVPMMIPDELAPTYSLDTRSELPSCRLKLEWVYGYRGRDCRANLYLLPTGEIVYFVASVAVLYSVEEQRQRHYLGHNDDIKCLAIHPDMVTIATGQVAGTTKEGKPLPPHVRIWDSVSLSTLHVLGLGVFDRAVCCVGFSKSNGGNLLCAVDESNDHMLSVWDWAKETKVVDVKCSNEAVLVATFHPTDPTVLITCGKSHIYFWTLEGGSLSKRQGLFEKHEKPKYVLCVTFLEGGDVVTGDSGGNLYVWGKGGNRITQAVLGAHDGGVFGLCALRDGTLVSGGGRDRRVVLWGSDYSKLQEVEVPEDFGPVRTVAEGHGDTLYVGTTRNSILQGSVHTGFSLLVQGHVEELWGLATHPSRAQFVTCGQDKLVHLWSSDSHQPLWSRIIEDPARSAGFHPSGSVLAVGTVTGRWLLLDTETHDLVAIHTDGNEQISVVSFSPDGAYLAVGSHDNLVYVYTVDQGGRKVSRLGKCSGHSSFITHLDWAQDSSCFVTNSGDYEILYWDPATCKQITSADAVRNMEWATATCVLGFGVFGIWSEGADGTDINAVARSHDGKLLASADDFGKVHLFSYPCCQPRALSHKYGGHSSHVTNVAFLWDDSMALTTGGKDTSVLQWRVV
UniProt P49848, whole entry: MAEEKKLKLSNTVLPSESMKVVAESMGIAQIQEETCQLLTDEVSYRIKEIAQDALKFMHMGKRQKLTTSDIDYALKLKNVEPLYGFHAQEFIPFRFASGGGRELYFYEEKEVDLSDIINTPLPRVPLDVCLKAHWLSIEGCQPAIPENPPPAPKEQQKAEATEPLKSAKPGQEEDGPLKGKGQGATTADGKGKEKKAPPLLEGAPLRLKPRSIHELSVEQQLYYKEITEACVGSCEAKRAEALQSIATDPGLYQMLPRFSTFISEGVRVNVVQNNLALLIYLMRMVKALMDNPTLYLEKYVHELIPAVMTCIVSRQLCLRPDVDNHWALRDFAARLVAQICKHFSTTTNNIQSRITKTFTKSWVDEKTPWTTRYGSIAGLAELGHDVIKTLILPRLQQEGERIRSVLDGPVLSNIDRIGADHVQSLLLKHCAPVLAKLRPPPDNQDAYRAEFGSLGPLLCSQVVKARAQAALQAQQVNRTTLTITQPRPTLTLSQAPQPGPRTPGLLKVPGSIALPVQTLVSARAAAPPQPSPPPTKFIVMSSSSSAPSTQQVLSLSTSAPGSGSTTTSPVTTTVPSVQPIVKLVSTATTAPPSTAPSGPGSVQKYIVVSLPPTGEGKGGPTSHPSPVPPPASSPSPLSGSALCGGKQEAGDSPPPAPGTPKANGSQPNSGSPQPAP
UniProt Q8WXB1: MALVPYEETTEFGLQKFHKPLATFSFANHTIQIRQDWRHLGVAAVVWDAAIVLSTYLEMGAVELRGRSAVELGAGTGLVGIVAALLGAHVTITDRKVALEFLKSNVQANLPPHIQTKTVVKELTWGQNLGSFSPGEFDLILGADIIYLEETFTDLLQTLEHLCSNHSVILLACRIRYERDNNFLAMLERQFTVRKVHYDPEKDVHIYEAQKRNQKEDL
UniProt Q9Y282: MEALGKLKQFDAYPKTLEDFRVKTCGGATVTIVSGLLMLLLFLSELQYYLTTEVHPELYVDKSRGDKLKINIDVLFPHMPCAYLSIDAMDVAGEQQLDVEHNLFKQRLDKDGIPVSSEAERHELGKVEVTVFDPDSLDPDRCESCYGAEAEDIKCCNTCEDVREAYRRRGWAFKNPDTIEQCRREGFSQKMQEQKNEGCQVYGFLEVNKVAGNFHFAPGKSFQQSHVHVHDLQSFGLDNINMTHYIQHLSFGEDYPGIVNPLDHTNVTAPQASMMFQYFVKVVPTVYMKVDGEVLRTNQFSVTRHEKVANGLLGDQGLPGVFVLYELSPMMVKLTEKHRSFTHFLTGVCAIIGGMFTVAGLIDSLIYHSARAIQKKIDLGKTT
UniProt Q6PCT2: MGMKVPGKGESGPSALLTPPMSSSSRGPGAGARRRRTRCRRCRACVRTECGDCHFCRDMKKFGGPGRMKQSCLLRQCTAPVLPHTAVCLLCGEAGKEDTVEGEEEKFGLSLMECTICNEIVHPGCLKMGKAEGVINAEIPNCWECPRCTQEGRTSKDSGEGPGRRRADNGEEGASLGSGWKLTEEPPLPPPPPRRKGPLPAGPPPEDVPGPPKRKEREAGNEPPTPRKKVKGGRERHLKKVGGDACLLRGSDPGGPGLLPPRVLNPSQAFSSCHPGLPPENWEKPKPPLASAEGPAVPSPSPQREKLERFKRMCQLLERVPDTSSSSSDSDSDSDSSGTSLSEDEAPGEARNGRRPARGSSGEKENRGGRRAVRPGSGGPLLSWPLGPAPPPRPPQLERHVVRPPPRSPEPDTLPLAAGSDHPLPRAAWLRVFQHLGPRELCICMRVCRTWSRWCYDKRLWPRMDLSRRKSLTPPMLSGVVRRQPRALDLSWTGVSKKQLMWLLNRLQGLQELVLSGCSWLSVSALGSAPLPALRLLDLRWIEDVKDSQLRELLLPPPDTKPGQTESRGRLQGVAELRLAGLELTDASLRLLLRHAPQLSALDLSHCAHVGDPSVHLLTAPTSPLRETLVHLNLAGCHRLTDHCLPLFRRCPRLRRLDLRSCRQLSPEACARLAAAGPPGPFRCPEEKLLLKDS
UniProt P19105: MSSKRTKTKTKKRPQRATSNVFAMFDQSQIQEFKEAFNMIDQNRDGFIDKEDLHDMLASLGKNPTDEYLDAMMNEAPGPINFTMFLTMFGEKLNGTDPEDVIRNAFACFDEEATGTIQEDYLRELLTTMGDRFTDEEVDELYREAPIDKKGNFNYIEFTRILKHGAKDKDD
UniProt Q13569: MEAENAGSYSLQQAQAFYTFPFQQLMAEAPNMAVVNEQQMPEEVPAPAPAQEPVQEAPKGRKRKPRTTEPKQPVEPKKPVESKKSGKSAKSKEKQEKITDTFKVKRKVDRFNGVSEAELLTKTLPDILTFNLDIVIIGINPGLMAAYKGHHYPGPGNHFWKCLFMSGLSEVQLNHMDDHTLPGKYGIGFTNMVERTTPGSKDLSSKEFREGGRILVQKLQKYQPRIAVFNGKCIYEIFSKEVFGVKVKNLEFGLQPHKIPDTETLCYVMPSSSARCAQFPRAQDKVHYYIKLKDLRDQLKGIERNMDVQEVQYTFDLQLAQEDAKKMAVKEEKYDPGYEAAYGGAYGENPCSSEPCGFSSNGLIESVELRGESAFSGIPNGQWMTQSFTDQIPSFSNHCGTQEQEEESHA
UniProt P52943: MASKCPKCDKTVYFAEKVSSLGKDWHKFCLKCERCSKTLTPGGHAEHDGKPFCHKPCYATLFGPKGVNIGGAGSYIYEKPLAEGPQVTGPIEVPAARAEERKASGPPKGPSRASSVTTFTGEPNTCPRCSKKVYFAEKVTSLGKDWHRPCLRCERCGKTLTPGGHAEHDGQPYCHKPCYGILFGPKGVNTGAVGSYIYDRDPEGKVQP
UniProt Q8N9N7: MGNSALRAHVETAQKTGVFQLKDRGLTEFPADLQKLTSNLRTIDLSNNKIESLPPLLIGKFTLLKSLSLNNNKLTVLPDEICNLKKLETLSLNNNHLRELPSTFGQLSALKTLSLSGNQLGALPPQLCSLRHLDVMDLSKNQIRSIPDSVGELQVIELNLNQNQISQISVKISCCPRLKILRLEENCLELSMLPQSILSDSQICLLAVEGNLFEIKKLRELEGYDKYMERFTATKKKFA
UniProt Q92841: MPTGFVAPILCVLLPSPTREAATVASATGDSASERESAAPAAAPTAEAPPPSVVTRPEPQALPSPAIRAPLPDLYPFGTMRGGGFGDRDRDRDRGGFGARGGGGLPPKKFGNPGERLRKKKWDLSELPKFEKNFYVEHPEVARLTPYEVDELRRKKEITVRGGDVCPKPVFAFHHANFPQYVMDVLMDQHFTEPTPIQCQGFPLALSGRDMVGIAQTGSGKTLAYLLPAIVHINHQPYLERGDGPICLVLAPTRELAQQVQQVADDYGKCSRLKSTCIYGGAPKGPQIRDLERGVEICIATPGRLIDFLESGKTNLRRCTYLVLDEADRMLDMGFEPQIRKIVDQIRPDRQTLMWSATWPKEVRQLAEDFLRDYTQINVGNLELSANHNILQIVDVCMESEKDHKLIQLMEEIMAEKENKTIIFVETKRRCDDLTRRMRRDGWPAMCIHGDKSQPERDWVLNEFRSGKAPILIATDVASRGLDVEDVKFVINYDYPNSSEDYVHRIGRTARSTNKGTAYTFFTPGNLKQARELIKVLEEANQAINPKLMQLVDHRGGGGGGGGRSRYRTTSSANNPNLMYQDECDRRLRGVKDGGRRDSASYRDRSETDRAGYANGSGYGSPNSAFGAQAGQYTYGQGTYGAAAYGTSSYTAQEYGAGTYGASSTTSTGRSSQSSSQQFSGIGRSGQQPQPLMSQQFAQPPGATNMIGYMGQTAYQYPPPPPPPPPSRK

Target | NP40-soluble protein abundance (concentration: 0.1mM) | NP40-soluble protein abundance (concentration: 0.5mM) | NP40-soluble protein abundance (concentration: 1mM) | NP40-soluble protein abundance (concentration: 2mM) | NP40-soluble protein abundance (concentration: 4mM) | NP40-soluble protein abundance (concentration: 6mM) | NP40-soluble protein abundance (concentration: 8mM) | NP40-soluble protein abundance (concentration: 10mM)
H3BPJ9 and related entries (UniProt O96000) | 1.02 ± 0.059 | 1.01 ± 0.045 | 1.16 ± 0.17 | 1.17 ± 0.12 | 1.18 ± 0.14 | 1.15 ± 0.089 | 1.2 ± 0.15 | 1.22 ± 0.19
H7BXI1 and related entries (UniProt A0FGR8) | 0.984 ± 0.013 | 1.01 ± 0.045 | 0.942 ± 0.012 | 0.945 ± 0.037 | 0.934 ± 0.014 | 0.944 ± 0.025 | 0.9154 ± 0.0069 | 0.894 ± 0.034
H7BYF2 and related entries (UniProt Q9BVL2) | 0.886 ± 0.013 | 0.843 ± 0.069 | 0.97 ± 0.046 | 0.948 ± 0.12 | 0.992 ± 0.12 | 1.03 ± 0.12 | 1.06 ± 0.14 | 1.19 ± 0.085
H0YNP1 and related entries (UniProt O94923) | 0.9085 ± 0.0029 | 0.92 ± 0.096 | 0.897 ± 0.022 | 0.851 ± 0.082 | 0.827 ± 0.19 | 0.892 ± 0.13 | 0.841 ± 0.066 | 0.815 ± 0.12
K7EQ37 and related entries (UniProt Q70J99) | 1.07 ± 0.037 | 1.05 ± 0.036 | 0.991 ± 0.027 | 1 ± 0.074 | 0.981 ± 0.069 | 0.943 ± 0.031 | 0.933 ± 0.051 | 0.907 ± 0.094
K7EIK7 and related entries (UniProt O95834) | 0.977 ± 0.053 | 1.01 ± 0.059 | 0.885 ± 0.044 | 0.9 ± 0.021 | 0.878 ± 0.028 | 0.914 ± 0.021 | 0.833 ± 0.031 | 0.855 ± 0.045
J3KR72 and related entries (UniProt P49848) | 1.09 ± 0.011 | 1.05 ± 0.043 | 1.13 ± 0.04 | 1.14 ± 0.034 | 1.2 ± 0.084 | 1.19 ± 0.071 | 1.2 ± 0.095 | 1.2 ± 0.11
H7BXH9 and related entries (UniProt Q8WXB1) | 1.04 ± 0.13 | 1.02 ± 0.12 | 0.885 ± 0.047 | 0.976 ± 0.23 | 0.96 ± 0.17 | 0.869 ± 0.079 | 0.876 ± 0.023 | 0.965 ± 0.078
H0Y5K5 and related entries (UniProt Q9Y282) | 1.04 ± 0.011 | 1.024 ± 0.0098 | 1.049 ± 0.01 | 0.963 ± 0.012 | 0.979 ± 0.039 | 0.981 ± 0.013 | 0.993 ± 0.029 | 0.903 ± 0.021
H0Y368 and related entries (UniProt O60762) | 1.4 ± 0.19 | 1.57 ± 0.34 | 1.44 ± 0.28 | 1.51 ± 0.34 | 1.52 ± 0.31 | 1.4 ± 0.3 | 1.38 ± 0.23 | 1.31 ± 0.19
H3BME1 and related entries (UniProt Q6PCT2) | 1.03 ± 0.16 | 1.07 ± 0.031 | 1.08 ± 0.13 | 1.08 ± 0.085 | 0.986 ± 0.09 | 1.01 ± 0.14 | 0.971 ± 0.21 | 0.993 ± 0.14
J3QRS3 and related entries (UniProt P19105+O14950+J3QRS3) | 0.903 ± 0.17 | 0.889 ± 0.11 | 1.17 ± 0.28 | 1.14 ± 0.14 | 1.11 ± 0.16 | 1.16 ± 0.15 | 1.07 ± 0.23 | 1.2 ± 0.26
H7C2Q8 and related entries (UniProt Q99848) | 1.09 ± 0.13 | 1.1 ± 0.14 | 1.25 ± 0.17 | 1.17 ± 0.12 | 1.2 ± 0.2 | 1.16 ± 0.15 | 1.14 ± 0.16 | 1.42 ± 0.31
J3QQW9 and related entries (UniProt Q15022) | 1.04 ± 0.046 | 1.02 ± 0.011 | 1.07 ± 0.063 | 1.09 ± 0.04 | 1.2 ± 0.11 | 1.15 ± 0.087 | 1.29 ± 0.2 | 1.28 ± 0.12
H7C561 and related entries (UniProt Q15637) | 0.897 ± 0.015 | 0.927 ± 0.046 | 1.01 ± 0.011 | 1 ± 0.07 | 0.982 ± 0.017 | 1 ± 0.055 | 1.02 ± 0.039 | 1.068 ± 0.0068
G8JL98 and related entries (UniProt Q13569) | 0.925 ± 0.055 | 1.06 ± 0.047 | 0.975 ± 0.17 | 0.956 ± 0.14 | 0.87 ± 0.16 | 0.878 ± 0.077 | 0.96 ± 0.16 | 0.99 ± 0.11
J3KTE4 and related entries (UniProt P84098) | 0.99 ± 0.035 | 1.06 ± 0.03 | 1.07 ± 0.056 | 1.05 ± 0.071 | 0.976 ± 0.12 | 0.962 ± 0.093 | 0.908 ± 0.15 | 1.02 ± 0.19
H0Y360 and related entries (UniProt Q01433) | 1.04 ± 0.035 | 1.03 ± 0.029 | 0.929 ± 0.024 | 0.94 ± 0.061 | 0.932 ± 0.046 | 0.929 ± 0.046 | 0.901 ± 0.024 | 0.886 ± 0.048
J3KNV1 and related entries (UniProt O60281) | 1.06 ± 0.041 | 1.05 ± 0.095 | 1.12 ± 0.066 | 1.09 ± 0.13 | 1.02 ± 0.051 | 1.04 ± 0.15 | 1.07 ± 0.057 | 1.05 ± 0.036
H0YA93 and related entries (UniProt Q86UW6) | 1.12 ± 0.023 | 1.02 ± 0.11 | 1.15 ± 0.04 | 1.13 ± 0.15 | 1.1 ± 0.045 | 1.2 ± 0.059 | 1.11 ± 0.062 | 1.18 ± 0.1
H0YFA4 and related entries (UniProt P52943) | 0.889 ± 0.045 | 0.847 ± 0.018 | 0.955 ± 0.029 | 0.904 ± 0.028 | 0.952 ± 0.033 | 0.921 ± 0.047 | 0.955 ± 0.071 | 0.996 ± 0.017
H7C3G9 and related entries (UniProt Q9UJ70) | 1.029 ± 0.0052 | 1 ± 0.042 | 0.9 ± 0.037 | 0.933 ± 0.054 | 0.915 ± 0.015 | 0.886 ± 0.018 | 0.862 ± 0.059 | 0.861 ± 0.057
H3BSW0 and related entries (UniProt Q8N9N7) | 0.984 ± 0.013 | 1 ± 0.038 | 0.957 ± 0.028 | 0.914 ± 0.022 | 0.884 ± 0.041 | 0.89 ± 0.029 | 0.915 ± 0.03 | 0.896 ± 0.024
H3BLZ8 (UniProt Q92841) | 0.965 ± 0.078 | 0.966 ± 0.11 | 0.903 ± 0.22 | 1.05 ± 0.018 | 0.981 ± 0.25 | 1.21 ± 0.12 | 1.16 ± 0.1 | 1.05 ± 0.28
H3BQW8 and related entries (UniProt Q16775) | 0.978 ± 0.026 | 0.948 ± 0.017 | 0.916 ± 0.046 | 0.901 ± 0.049 | 0.898 ± 0.071 | 0.864 ± 0.046 | 0.861 ± 0.078 | 0.836 ± 0.11
J3QLS3 and related entries (UniProt Q9Y2R9) | 1.07 ± 0.12 | 1.09 ± 0.14 | 1.27 ± 0.25 | 1.41 ± 0.23 | 1.48 ± 0.33 | 1.41 ± 0.29 | 1.32 ± 0.27 | 1.46 ± 0.36

Two successive entries already listed, for reference:
Target | NP40-soluble protein abundance (concentration: 0.1mM) | NP40-soluble protein abundance (concentration: 0.5mM) | NP40-soluble protein abundance (concentration: 1mM) | NP40-soluble protein abundance (concentration: 2mM) | NP40-soluble protein abundance (concentration: 4mM) | NP40-soluble protein abundance (concentration: 6mM) | NP40-soluble protein abundance (concentration: 8mM) | NP40-soluble protein abundance (concentration: 10mM)
H0Y368 and related entries (UniProt O60762) | 1.4 ± 0.19 | 1.57 ± 0.34 | 1.44 ± 0.28 | 1.51 ± 0.34 | 1.52 ± 0.31 | 1.4 ± 0.3 | 1.38 ± 0.23 | 1.31 ± 0.19
H3BME1 and related entries (UniProt Q6PCT2) | 1.03 ± 0.16 | 1.07 ± 0.031 | 1.08 ± 0.13 | 1.08 ± 0.085 | 0.986 ± 0.09 | 1.01 ± 0.14 | 0.971 ± 0.21 | 0.993 ± 0.14

— the supplement of paper PMC6411743
